From PubChem BioAssay AID504467 (National Center for Advancing Translational Sciences (NCATS), 2011)
The campaign covered roughly 330,000 compounds. About 7,700 (2.3%) were called active. The inconclusive results got no clear call from the source; some entries with a clear call stand among them for comparison. Calls follow the shape of the dose curve; as a rule, active = well fitted inhibition curve with a large enough effect; inconclusive = small, poorly fitted or top-dose-only effect, or effect the other way; inactive = flat fitted curve, though single readings scatter. Potencies beside an inconclusive call are fits to weak or partial responses and may not hold up.

Assay: qHTS screen for small molecules that inhibit ELG1-dependent DNA repair in human embryonic kidney (HEK293T) cells expressing luciferase-tagged ELG1; also: nearly all actives have a fitted effect of over 55% in size
Settings: HEK293T ELG1-luciferase reporter, luminescence, 16 h, DNA damage induced by 5-fluorouridine; activity change, negative = inhibition: at 46.1 µM (top of the series)
In short: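 Cells (2,000 per well) received 5-fluorouridine plus test compound or DMSO and were incubated 16 hr at 37 °C, 5% CO2. Luciferase activity was read by luminescence 30 min after ONE-Glo addition; signal suppression marked inhibition of damage-induced ELG1 function.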
% is scaled to controls: 0 for no effect and ±100 for the full control effect; potency is read from the fitted curve at half-maximal effect.

| Structure (SMILES) | Potency | activity change, negative = inhibition |
| --- | --- | --- |
| O=C(Cc1csc(-c2cccc(Cl)c2)n1)Nc1cccc(S(=O)(=O)NC2=NCCC2)c1 | inconclusive: 12.6 µM [inhibitor, partial curve, poor fit] |  |
| CCOc1ccc(-c2c(C(=O)N/N=C/c3ccc(C)o3)nnn2-c2nonc2N)cc1 |  | inactive: 0% |
| CCOC(=O)c1[nH]c2ccc(Br)cc2c1NC(=O)CCN1CCC(C(=O)OCC)CC1 | inconclusive: 14.6 µM [inhibitor, single point] |  |
| COc1ccc(N(CC(=O)NCc2ccc(F)cc2)C(=O)CCC(=O)Nc2nccs2)cc1 |  | inactive: 0.798% |
| COc1ccc(N2CCN(C(=O)c3ccc(CNc4c(N5CCOCC5)c(=O)c4=O)cc3)CC2)cc1 |  | inactive: -3.85% |
| COc1ccc(S(=O)(=O)N2CCCCCC2)cc1N(C)S(=O)(=O)c1ccc(C)cc1 | inconclusive: 11.6 µM [inhibitor, partial curve] |  |
| COC(=O)COc1ccc(NC(=O)C2CCCO2)cc1 (stereo unspecified) | inconclusive: 10.3 µM [activator, partial curve, poor fit] |  |
| COc1ccc(C(=O)OC(C)C(=O)NC2CCCc3ccccc32)cc1OC (stereo unspecified) | inconclusive: 35.5 µM [inhibitor, single point] |  |
| CC(C)CNC(=O)c1ccccc1N(Cc1ccccc1)S(C)(=O)=O |  | inactive: -8.15% |
| C=CCn1c(SCC(=O)Nc2ccc3c(c2)CCC3)nnc1-c1cccs1 | inconclusive: 5.17 µM [inhibitor, partial curve, poor fit] |  |
| O=C(CN(c1ccc2c(c1)OCCO2)S(=O)(=O)c1ccccc1)Nc1ccc2c(c1)OCO2 | active: 9.2 µM |  |
| O=C(CNS(=O)(=O)c1cccs1)Nc1ccc2c(c1)OCCO2 | inconclusive: 14.6 µM [activator, partial curve] |  |
| Cn1c(=O)c2c(nc(NCC3CCCO3)n2Cc2cccc(Br)c2)n(C)c1=O (stereo unspecified) | inconclusive: 35.5 µM [inhibitor, single point] |  |
| S=c1[nH]nc(Nc2ccc(Cl)cc2)s1 | inconclusive: 20.6 µM [activator, partial curve] |  |
| COc1ccc(CNc2ccccn2)c(O)c1 | inconclusive: 8.2 µM [activator, single point] |  |
| O=C(Cn1c(=O)oc2cc(S(=O)(=O)NCc3ccccc3)ccc21)NCc1ccco1 |  | inactive: -18.7% |
| CCc1ccccc1Nc1nc(N)nc(COC(=O)c2c(C)noc2C)n1 |  | inactive: 0% |
| COCc1cc(CN2CCCC2)c(O)c2ncccc12 | inconclusive: 25.9 µM [inhibitor, single point] |  |
| Cc1cccc(Cn2c(O)c(N=NC(=S)Nc3ccccc3F)c3ccccc32)c1 | active: 3.66 µM |  |
| COC(=O)c1ccc(COc2ccccc2/C=C/C(=O)c2ccc(OCC(=O)O)cc2)cc1 |  | inactive: -11.7% |
| O=C(Nc1cc(S(=O)(=O)N2CCCCC2)ccc1O)c1ccccc1NS(=O)(=O)c1ccc(F)cc1 |  | inactive: -6.19% |
| COc1ccc(NC2=CC(=O)N(C)C2=O)cc1 | inconclusive: 11.6 µM [activator, partial curve] |  |
| N#CC/C(N)=N/Nc1nc2ccccc2nc1Cc1ccccc1 | inconclusive: 29.1 µM [inhibitor, single point] |  |
| Cc1cccc(NC(=O)CSc2nc(COc3ccccc3)nc3ccccc23)c1C | inconclusive: 29.1 µM [inhibitor, single point] |  |

| Structure (SMILES) | Potency | activity change, negative = inhibition |
| --- | --- | --- |
| Cc1ccc(SC[C@H](c2ccccc2)N2CCN(C)CCC2=O)cc1 | inconclusive: 20.6 µM [activator, partial curve] |  |
| CC1CCCC(NC(=O)NC(=O)CCl)C1C (stereo unspecified) | active: 20.6 µM |  |
| Cc1ccc(NC(=O)c2cnc(SCC(=O)NCC3CCCO3)n(C)c2=O)cc1 (stereo unspecified) | inconclusive: 29.1 µM [activator, single point] |  |
| CCOC(=O)N1CCN(S(=O)(=O)c2ccc(C(=O)Nc3sc4c(c3C(N)=O)CCN(CC)C4)cc2)CC1 | inconclusive: 25.9 µM [activator, single point] |  |
| CN=C1S/C(=C\c2ccc(OCC(=O)OC)c(OC)c2)C(=O)N1C |  | inactive: 1.11% |
| c1ccc(C2C3=C(Nc4ncnn42)c2ccccc2CCC3)cc1 (stereo unspecified) |  | inactive: -5.61% |
| Cn1c(CSCc2ccccc2)nnc1SCC(=O)Nc1nccs1 | inconclusive: 13 µM [inhibitor, partial curve, poor fit] |  |
| CCCC1=Nc2cc(C(=O)N3CCCC3)ccc2Sc2ccc(C)cc21 |  | inactive: 12.7% |
| COc1c(C)cc(C(=O)C2CCCN(C(=O)C3=C(C)OCCO3)C2)cc1C (stereo unspecified) | inconclusive: 29.1 µM [inhibitor, single point] |  |
| COc1ccc(S(=O)(=O)NCCC(=O)NCc2ccc(F)cc2)cc1 |  | inactive: -1.32% |
| CC(=O)Nc1ccc(S(=O)(=O)NCCOc2ccc(Cl)cc2C)cc1 | inconclusive: 14.6 µM [inhibitor, single point] |  |
| COc1cc(/C=N/NC(=O)c2cccnc2)ccc1OS(=O)(=O)c1ccc(F)cc1 | inconclusive: 25.9 µM [inhibitor, partial curve, poor fit] |  |
| c1ccc(-c2c[n+]3c(n2-c2ccccc2)SCC3)cc1 | inconclusive: 5.8 µM [inhibitor, partial curve] |  |
| COc1c(OC(C)=O)ccc(/C=C/c2ccc3ccccc3n2)c1[N+](=O)[O-] | inconclusive: 3.26 µM [activator, partial curve] |  |
| CN(C(=O)c1cc(-c2ccccc2)on1)C1CCCCC1 | inconclusive: 8.2 µM [activator, partial curve] |  |
| COc1cc(C2/C(=C(\O)c3ccc4c(c3)OCCO4)C(=O)C(=O)N2c2nnc(C)s2)cc(OC)c1OC (stereo unspecified) | inconclusive: 20.6 µM [activator, partial curve, poor fit] |  |
| CCOCCn1ccc2c(OCC(=O)Nc3ccccc3OC)cccc2c1=O | inconclusive: 18.3 µM [inhibitor, single point] |  |
| CC(C)(C)C(=O)/C=c1\s/c(=C\c2ccc(-c3ccc([N+](=O)[O-])cc3)o2)c(=O)n1CC(=O)NC(N)=O | inconclusive: 6.51 µM [inhibitor, partial curve] |  |
| Cn1c(N)c(C(C[N+](=O)[O-])c2c(F)cccc2Cl)c(=O)n(C)c1=O (stereo unspecified) | inconclusive: 2.31 µM [inhibitor, partial curve, poor fit] |  |
| CN1CCN(C(=O)CCN2C(=O)/C(=C/c3ccc(F)cc3)SC2=S)CC1 |  | inactive: 6.79% |
| CCOC(=O)c1ccc2nc(C(F)(F)F)[nH]c(=O)c2c1 |  | inactive: 5.23% |
| C=C(C)CSc1nc(N)c2c(C)c(C)sc2n1 | inconclusive: 4.11 µM [activator, single point] |  |
| O=C(NC(=S)N1CCN(c2ccccc2)CC1)c1ccco1 | inconclusive: 7.3 µM [activator, single point] |  |
| O=C(c1cc2ccccc2oc1=O)N(Cc1ccccc1F)C1CCS(=O)(=O)C1 (stereo unspecified) | inconclusive: 18.3 µM [activator, single point] |  |

By substructure, the compounds so far with a halogen (15)

| Structure (SMILES) | Potency | activity change, negative = inhibition |
| --- | --- | --- |
| O=C(Cc1csc(-c2cccc(Cl)c2)n1)Nc1cccc(S(=O)(=O)NC2=NCCC2)c1 | inconclusive: 12.6 µM [inhibitor, partial curve, poor fit] |  |
| CCOC(=O)c1[nH]c2ccc(Br)cc2c1NC(=O)CCN1CCC(C(=O)OCC)CC1 | inconclusive: 14.6 µM [inhibitor, single point] |  |
| COc1ccc(N(CC(=O)NCc2ccc(F)cc2)C(=O)CCC(=O)Nc2nccs2)cc1 |  | inactive: 0.798% |
| Cn1c(=O)c2c(nc(NCC3CCCO3)n2Cc2cccc(Br)c2)n(C)c1=O (stereo unspecified) | inconclusive: 35.5 µM [inhibitor, single point] |  |
| S=c1[nH]nc(Nc2ccc(Cl)cc2)s1 | inconclusive: 20.6 µM [activator, partial curve] |  |
| Cc1cccc(Cn2c(O)c(N=NC(=S)Nc3ccccc3F)c3ccccc32)c1 | active: 3.66 µM |  |
| O=C(Nc1cc(S(=O)(=O)N2CCCCC2)ccc1O)c1ccccc1NS(=O)(=O)c1ccc(F)cc1 |  | inactive: -6.19% |
| CC1CCCC(NC(=O)NC(=O)CCl)C1C (stereo unspecified) | active: 20.6 µM |  |
| COc1ccc(S(=O)(=O)NCCC(=O)NCc2ccc(F)cc2)cc1 |  | inactive: -1.32% |
| CC(=O)Nc1ccc(S(=O)(=O)NCCOc2ccc(Cl)cc2C)cc1 | inconclusive: 14.6 µM [inhibitor, single point] |  |
| COc1cc(/C=N/NC(=O)c2cccnc2)ccc1OS(=O)(=O)c1ccc(F)cc1 | inconclusive: 25.9 µM [inhibitor, partial curve, poor fit] |  |
| Cn1c(N)c(C(C[N+](=O)[O-])c2c(F)cccc2Cl)c(=O)n(C)c1=O (stereo unspecified) | inconclusive: 2.31 µM [inhibitor, partial curve, poor fit] |  |
| CN1CCN(C(=O)CCN2C(=O)/C(=C/c3ccc(F)cc3)SC2=S)CC1 |  | inactive: 6.79% |
| CCOC(=O)c1ccc2nc(C(F)(F)F)[nH]c(=O)c2c1 |  | inactive: 5.23% |
| O=C(c1cc2ccccc2oc1=O)N(Cc1ccccc1F)C1CCS(=O)(=O)C1 (stereo unspecified) | inconclusive: 18.3 µM [activator, single point] |  |

Next part.

| Structure (SMILES) | Potency | activity change, negative = inhibition |
| --- | --- | --- |
| O=C(Nc1cccc(Cl)c1)N1CCOCC1 | inconclusive: 4.11 µM [activator, partial curve, poor fit] |  |
| O=C(NCC1CCCO1)C(=O)N/N=C\c1ccc2c(c1)OCO2 (stereo unspecified) |  | inactive: -2.25% |
| O=c1c2ccccc2[nH]c2ccc(O)cc12 | inconclusive: 23.1 µM [activator, single point] |  |
| CN(C)C(CNC(=O)C1CCN(S(=O)(=O)c2cccc(Cl)c2Cl)CC1)c1ccccc1 (stereo unspecified) |  | inactive: -1.47% |
| COc1cccc(-c2noc(-c3ccc(Br)o3)n2)c1 | inconclusive: 9.2 µM [activator, partial curve] |  |
| CCOC(=O)Nc1ccc(=O)n(Cc2c(Cl)cccc2Cl)c1 |  | inactive: 19.2% |
| Cc1ccc(NC(=O)/C=C/c2ccc([N+](=O)[O-])s2)cc1 | inconclusive: 2.59 µM [activator, partial curve, poor fit] |  |
| Cc1ccc(S(=O)(=O)CNC(=S)c2cccc(C)c2)cc1 |  | inactive: -8.2% |
| CC1(C)OC2OC(C(=O)N/N=C/c3cc(Br)ccc3O)C3OC(C)(C)OC3C2O1 (stereo unspecified) | inconclusive: 16.4 µM [inhibitor, partial curve, poor fit] |  |
| CCn1c(=O)cc(SCC(=O)Nc2ccc3c(c2)OCCO3)c2ccccc21 |  | inactive: 22.1% |
| CC(C(=O)c1ccc(Br)cc1)[n+]1cccc2ccccc21 (stereo unspecified) |  | inactive: 1.82% |
| O=C(CCNC(=O)c1ccccc1Cl)OCC(=O)c1ccccc1 |  | inactive: -5.6% |
| COC(=O)c1ccc(OCC(=O)c2ccccc2OC)cc1 | inconclusive: 23.1 µM [activator, single point] |  |
| CCN(CC)S(=O)(=O)c1ccc(OC)c(NC(=O)C(C)Oc2ccc3c(C)cc(=O)oc3c2)c1 (stereo unspecified) | active: 20.6 µM |  |
| CCc1nnc2n1N=C(c1ccc(-c3cc(Cl)ccc3Cl)o1)CS2 |  | inactive: -10.3% |
| Fc1ccc(-c2cc(C(F)(F)F)nc(NCc3cccs3)n2)cc1 |  | inactive: -12.5% |
| c1ccc(-n2ncc3c(NCc4cccnc4)ncnc32)cc1 | inconclusive: 8.2 µM [activator, partial curve] |  |
| C/C(=N\Nc1nccnc1Cl)c1ccc(O)cc1 | inconclusive: 13 µM [activator, partial curve, poor fit] |  |
| Cc1ccc(C)c(OCCCCCn2ccnc2)c1 |  | inactive: -0.0318% |
| Nc1nc(-c2ccc3c(c2)CCC(=O)N3)cs1 | inconclusive: 20.6 µM [activator, partial curve] |  |
| O=C(Nc1ccccc1)Nc1ncc([N+](=O)[O-])s1 | inconclusive: 0.58 µM [activator, partial curve] |  |
| CCOC(=O)C1=C(C)N(Cc2ccccc2)C(=O)NC1c1ccc(OC)cc1 (stereo unspecified) | inconclusive: 16.4 µM [inhibitor, partial curve, poor fit] |  |
| CC(=O)N(NC(N)=O)C(C)CC(=O)C1C(C)C=CCC1(C)C (stereo unspecified) | inconclusive: 29.1 µM [activator, single point] |  |
